# Key:
# Format in all cases: in vivo
# [1] = tested on: male Swiss albino mice (CD-1); assay: Maximal electroshock seizure test (MES); conditions: protective index, rotarod TD50 / MES ED50
# Description: (§1) The male Swiss albino mice (CD-1) weighing 18-26 g were used. All procedures were carried out in accordance with applicable Polish and international guidelines on the ethics of animal testing, after obtaining appropriate institutional approval. The substances were administered intraperitoneally (i.p.), in 1% aqueous solution of Tween, as single injections with a volume of 10 ml/kg, 30 minutes before the given test. Screening was performed on groups consisted of 4 mice. The average effective dose (ED50) in given test and toxic dose in the rotarod test (TD50) was estimated based on the results obtained in 3-4 groups of animals consisting of 6 mice. All tests were carried out based on the procedures described in the specialist literature.
# In the MES test, the seizures were induced by an electrical stimulus lasting of 0.2 s duration, 500 V voltage and 25 mA intensity. The electrical stimuli was generated using an electric shock generator (Rodent shocker, Type 221, Hugo Sachs Elektronik, Germany) and delivered to the animal using electrodes placed on the auricles. The study was conducted 30 minutes after intraperitoneal administration of the compounds at various doses. During the experiment, the number of animals that experienced a seizure episode in the form of tonic extension of the hind limbs was counted (Kamiński, K.; Rapacz, A.; Łuszczki, J. J.; Latacz, G.; Obniska, J.; Kieć-Kononowicz, K.; Filipek, B. Bioorg. Med. Chem. 2015, 23, 2548-2561; Castel-Branco, M. M.; Alves, G. L.; Figueiredo, I. V.; Falcão, A. C.; Caramona, M. M. Methods Find. Exp. Clin. Pharmacol. 2009, 31, 101-106).
# (§2) To perform a statistical evaluation of the results, one-way ANOVA variance analysis and Dunnett's post hoc test (multiple comparison test) were used. The value at the significance level p<0.05 was considered statistically significant.
# [2] = tested on: male Swiss albino mice (CD-1); assay: Psychomotor seizure test 6 Hz (32 mA); conditions: protective index, rotarod TD50 / 6 Hz 32 mA ED50
# Description: as §1
# In the 6 Hz test, seizures were induced by an electric stimulus of 32 mA and/or 44 mA and a frequency of 6 pulses per second. An electrical pulse was generated using an electric shock generator (ECT Unit 57800; Ugo Basile, Gemonio, Italy) and delivered to the animal using ocular electrodes. Before starting the test, the eye surface was gently moistened with a solution of local anesthetic (1% lidocaine solution). The study was conducted 30 minutes after intraperitoneal administration of the compounds at various doses. An electrical pulse was delivered continuously for a period of 3 seconds, followed by observation of the animal for a period of 10 seconds. During this time, immobility or stun associated with rearing, forelimb clonus, twitching of the vibrissae and Straub's tail were observed. These symptoms persist throughout the observation period, indicating the occurrence of psychomotor seizures in mice. Mice resuming normal behavior within 10 s after stimulation were considered as protected (Barton, M. E.; Klein, B. D.; Wolf, H. H.; White, H. S. Epilepsy Res. 2001, 47, 217-227; Wojda, E.; Wlaź, A.; Patsalos, P. N.; Łuszczki, J. J. Epilepsy Res. 2009, 86, 163-174).
# as §2
# [3] = tested on: male Swiss albino mice (CD-1); assay: Subcutaneous pentylenetetrazole seizure test (scPTZ); conditions: protective index, rotarod TD50 / scPTZ ED50
# Description: as §1
# In the scPTZ test, seizures were induced by subcutaneous administration of pentylenetetrazole (PTZ) at a dose of 100 mg/kg. This caused clonic seizures with accompanying loss of the righting reflex. Test compounds were administered 30 minutes before the experiment. After PTZ administration, the animals were placed individually in transparent containers and observed for a period of 30 minutes for the occurrence of clonic seizures. During this time, the latency of the first onset of clonic seizures, defined as clonus of the whole body lasting at least 3 seconds with loss of the righting reflex and the number of seizure episodes during the test were noted and compared with control group. The absence of clonic convulsions within the observed time period was interpreted as the compound's ability to protect against PTZ-induced seizures (Ferreri, G.; Chimirri, A.; Russo, E.; Gitto, R.; Gareri, P.; De Sarro, A.; De Sarro, G. Pharmacol. Biochem. Behav. 2004, 77, 85-94; Łączkowski, K.; Sałat, K.; Misiura, K.; Podkowa, A.; Malikowska, N. J. Enzyme Inhib. Med. Chem. 2016, 31, 1576-82).
# as §2
# [4] = tested on: male Swiss albino mice (CD-1); assay: Psychomotor seizure test 6 Hz (44 mA); conditions: protective index, rotarod TD50 / 6 Hz 44 mA ED50
# Description: as §1, with “All” for “The male Swiss albino mice (CD-1) weighing 18-26 g were used. All”, “The average effective dose (ED50) in given test and toxic dose in the rotarod test (TD50) was estimated based on the results obtained in 3-4 groups of animals consisting of 6 mice.” left out
# In the 6 Hz test, seizures were induced by an electric stimulus of 32 mA and/or 44 mA and a frequency of 6 pulses per second. […] Before starting the test, the eye surface was gently moistened with a solution of local anesthetic (1% lidocaine solution). The study was conducted 30 minutes after intraperitoneal administration of the compounds at various doses. An electrical pulse was delivered continuously for a period of 3 seconds, followed by observation of the animal for a period of 10 seconds. During this time, immobility or stun associated with rearing, forelimb clonus, twitching of the vibrissae and Straub's tail were observed. These symptoms persist throughout the observation period, indicating the occurrence of psychomotor seizures in mice.
# as §2
SMILES,PI (TD50/ED50) (MES) [1],"PI (TD50/ED50) (6 Hz, 32 mA) [2]",PI (TD50/ED50) (scPTZ) [3],"PI (TD50/ED50) (6 Hz, 44 mA) [4]"
"O=C(C(c1ccccc1)N1C(=O)CCC1=O)N1CCN(c2cccc(OC(F)(F)F)c2)CC1 (racemic) [Compound 10, 1-(2-Oxo-1-phenyl-2-(4-(3-(trifluoromethoxy)phenyl)piperazin-1-yl)ethyl)pyrrolidine-2,5-dione]",1.8,1.9,>1.2,–
"O=C(C(c1ccccc1)N1C(=O)CCC1=O)N1CCN(c2cccc(C(F)(F)F)c2)CC1 (racemic) [Compound 6, 1-(2-Oxo-1-phenyl-2-(4-(3-(trifluoromethyl)phenyl)piperazin-1-yl)ethyl)pyrrolidine-2,5-dione]",8.2,8.7,3.3,2.7
"O=C(C(c1ccccc1)N1C(=O)CCC1=O)N1CCC(c2cccc(C(F)(F)F)c2)CC1 (racemic) [Compound 19, 1-(2-Oxo-1-phenyl-2-(4-(3-(trifluoromethyl)phenyl)piperidin-1-yl)ethyl)pyrrolidine-2,5-dione]",3.1,6.2,>2.5,–
"O=C(C(c1ccccc1)N1C(=O)CCC1=O)N1CCN(c2cccc(C(F)F)c2)CC1 (racemic) [Compound 9, 1-(2-Oxo-1-phenyl-2-(4-(3-(difluoromethyl)phenyl)piperazin-1-yl)ethyl)pyrrolidine-2,5-dione]",2.8,4.4,2.9,1.4
O=C(C(c1ccccc1)N1C(=O)CCC1=O)N1CCN(c2cccc(SC(F)(F)F)c2)CC1 (stereo not shown) [Compound 12],4.1,9.5,<1.5,2.6
"O=C([C@@H](c1ccccc1)N1C(=O)CCC1=O)N1CCN(c2cccc(Cl)c2)CC1 [(R)-3, (R)-1-(2-(4-(3-chlorophenyl)piperazin-1-yl)-2-oxo-1-phenylethyl)pyrrolidine-2,5-dione]",3.7,4.5,2.8,–
"O=C(C(c1ccccc1)N1C(=O)CCC1=O)N1CCN(c2cccc(-c3ccccc3)c2)CC1 (racemic) [Compound 13, 1-(2-(4-([1,1′-Biphenyl]-3-yl)piperazin-1-yl)-2-oxo-1-phenylethyl)pyrrolidine-2,5-dione]",1.7,2.8,>0.7,–
"O=C([C@@H](c1ccccc1)N1C(=O)CCC1=O)N1CCN(c2cccc(OC(F)(F)F)c2)CC1 [(R)-10, (R)-1-(2-Oxo-1-phenyl-2-(4-(3-(trifluoromethoxy)phenyl)piperazin-1-yl)ethyl)pyrrolidine-2,5-dione]",>6.6,11.7,<2.5,–
"O=C(C(c1ccccc1)N1C(=O)CCC1=O)N1CCN(c2cc(Cl)cc(Cl)c2)CC1 (racemic) [Compound 4, 1-(2-(4-(3,5-Dichlorophenyl)piperazin-1-yl)-2-oxo-1-phenylethyl)pyrrolidine-2,5-dione]",>4.4,>17.0,–,–
"Cc1cccc(N2CCN(C(=O)C(c3ccccc3)N3C(=O)CCC3=O)CC2)c1 (racemic) [Compound 5, 1-(2-Oxo-1-phenyl-2-(4-(m-tolyl)piperazin-1-yl)ethyl)pyrrolidine-2,5-dione]",4.6,4.8,3.0,–
"O=C(C(c1ccccc1)N1C(=O)CCC1=O)N1CCN(c2ccccc2)CC1 (racemic) [Compound 2, 1-(2-Oxo-1-phenyl-2-(4-phenylpiperazin-1-yl)ethyl)pyrrolidine-2,5-dione]",>3.3,>3.6,>3.0,–
"O=C(C(c1ccccc1)N1C(=O)CCC1=O)N1CCN(c2cccc(Cl)c2)CC1 (racemic) [Compound 3, 1-(2-(4-(3-Chlorophenyl)piperazin-1-yl)-2-oxo-1-phenylethyl)pyrrolidine-2,5-dione]",3.9,3.6,2.7,–
"O=C([C@H](c1ccccc1)N1C(=O)CCC1=O)N1CCN(c2cccc(C(F)(F)F)c2)CC1 [(S)-6, (S)-1-(2-Oxo-1-phenyl-2-(4-(3-(trifluoromethyl)phenyl)piperazin-1-yl)ethyl) pyrrolidine-2,5-dione]",>4.4,–,>4.0,–
"O=C(C(c1ccc(F)cc1)N1C(=O)CCC1=O)N1CCN(c2cccc(C(F)(F)F)c2)CC1 (racemic) [Compound 14, 1-(1-(4-Fluorophenyl)-2-oxo-2-(4-(3-(trifluoromethyl)phenyl)piperazin-1-yl)ethyl)pyrrolidine-2,5-dione]",5.3,6.2,–,–
"O=C([C@@H](c1ccccc1)N1C(=O)CCC1=O)N1CCN(c2cccc(C(F)(F)F)c2)CC1 [(R)-6, (R)-1-(2-Oxo-1-phenyl-2-(4-(3-(trifluoromethyl)phenyl)piperazin-1-yl)ethyl) pyrrolidine-2,5-dione]",13.1,12.0,8.5,4.1

# Source: patent US12139458B2, “(2,5-dioxopyrrolidin-1-yl)(phenyl)-acetamide derivatives and their use in the treatment of neurological diseases” (UNIWERSYTET JAGIELLONSKI, priority 2019, dated 2024)
